Experimental data: publication PMC6795808
For at least one entry, the source does not settle the construct or the ends of the probe. Weaker means in comparison with the reference protein, sequence or condition of that experiment.

The chains behind the UniProt entries cited, without tags or fusion partners. Where a name states a change or a piece, a line headed by the entry shows the natural chain unless it says otherwise.
UniProt Q9Y6M1: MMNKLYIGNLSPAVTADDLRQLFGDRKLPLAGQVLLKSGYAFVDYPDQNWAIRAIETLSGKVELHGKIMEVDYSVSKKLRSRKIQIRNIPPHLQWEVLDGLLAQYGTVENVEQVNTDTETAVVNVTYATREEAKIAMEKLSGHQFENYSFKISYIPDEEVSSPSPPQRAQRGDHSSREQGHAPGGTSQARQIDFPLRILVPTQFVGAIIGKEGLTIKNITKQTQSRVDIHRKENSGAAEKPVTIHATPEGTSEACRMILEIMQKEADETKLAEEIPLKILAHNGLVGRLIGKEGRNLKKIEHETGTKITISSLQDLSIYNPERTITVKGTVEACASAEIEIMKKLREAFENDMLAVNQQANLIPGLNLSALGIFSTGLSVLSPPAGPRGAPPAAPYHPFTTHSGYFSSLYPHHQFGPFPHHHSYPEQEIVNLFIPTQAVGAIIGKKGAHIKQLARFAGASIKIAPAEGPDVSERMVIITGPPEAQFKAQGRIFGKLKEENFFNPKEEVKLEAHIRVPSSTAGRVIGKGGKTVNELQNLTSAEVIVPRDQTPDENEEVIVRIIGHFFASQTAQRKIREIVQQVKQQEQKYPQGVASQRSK

Assays:
IGF2BP2 WT = IGF2BP2 WT (UniProt Q9Y6M1); assay: EMSA; conditions: LightShift Chemiluminescent RNA EMSA kit binding buffer (composition not stated), 30 min, room temperature; 6% native PAGE, 0.5x TBE; recombinant protein; protein details: FLAG; label: 3'-biotin
YTHDC1 WT = YTHDC1 WT (UniProt Q96MU7); assay: EMSA; conditions: LightShift Chemiluminescent RNA EMSA kit binding buffer (composition not stated), 30 min, room temperature; 6% native PAGE, 0.5x TBE; recombinant protein; protein details: FLAG; label: 3'-biotin

Sequence | binding result (IGF2BP2 WT) | binding result (YTHDC1 WT)
CCUCACCACAAGGUAUCCUG [circNSUN2 mutant type (IGF2BP2 probe)] | binds more weakly | –
AUAAGGUAUCCUGAAGAGCU [circNSUN2-m6A mutant type] | – | binds more weakly
